# The supplement of paper PMC8728848
# The list shows a part of the results.
# B1: AT1G80310(18) (Arabidopsis thaliana), Q0WP36 (protein)
# chain: METTTTPLLPGDRSRCGWLRRRLRLKNPLSSELSGAVGDLGTFIPIVLTLTLVSNLDLSTTLIFTGFYNIATGLLFDIPMPVQPMKSIAAVAVSESPHLTPSQIAAAGASTAATLLLLGATGAMSFLYNIIPLPVVRGVQLSQGLQFAFTAIKYVRFNYDTATLKPSSSPRIWLGLDGLILALAALLFIILSTGSGNDREAEDGDLAETSSNESQSRRRRLRLLSSIPSALIVFALGLVLCFIRDPSIFKDLKFGPSKFHILRISWDDWKIGFLRAAIPQIPLSVLNSVIAVCKLSNDLFDKELSATTVSISVGVMNLIGCWFGAMPVCHGAGGLAGQYRFGARSGLSVIFLGIGKLIVGLVFGNSFVRILSQFPIGILGVLLLFAGIELAMASKDMNSKEDSFIMLVCAAVSMTGSSAALGFGCGVVLYLLLKLRTLDCSSVTLFSRSSDESQVDSEAAPRDV
# Legend:
# Test in all cases: glycan array binding signal (z-score within array); higher = stronger binding
# Settings in all cases: glycan notation: IUPAC condensed, linker removed
# [1] = target: GlcNAc(b1-3)Gal(b1-4)GlcNAc(b1-3)Gal(b1-4)GlcNAc(b1-2)Man(a1-3)[GlcNAc(b1-3)Gal(b1-4)GlcNAc(b1-3)Gal(b1-4)GlcNAc(b1-2)Man(a1-6)]Man(b1-4)GlcNAc(b1-4)GlcNAc
# In short: (§1)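 Glycan array data were curated from 3228 arrays in the Consortium for Functional Glycomics database and kept only where the protein sequence was available. Glycan names were converted to IUPAC-condensed notation, and columns mapping to the same glycan were averaged. The binding signal is a within-array Z-score, averaged across arrays of the same protein sequence at different concentrations or buffers and across linkers. Negative Z-scores can be read as non-binding.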
# [2] = target: GlcNAc(b1-3)Gal(b1-4)GlcNAc(b1-3)Gal(b1-4)GlcNAc(b1-2)Man(a1-3)[GlcNAc(b1-3)Gal(b1-4)GlcNAc(b1-3)Gal(b1-4)GlcNAc(b1-2)Man(a1-6)]Man(b1-4)GlcNAc(b1-4)[Fuc(a1-6)]GlcNAc
# In short: as §1
# [3] = target: GlcNAc(b1-3)Gal(b1-4)GlcNAc(b1-3)Gal(b1-4)GlcNAc(b1-2)[GlcNAc(b1-3)Gal(b1-4)GlcNAc(b1-3)Gal(b1-4)GlcNAc(b1-6)]Man(a1-6)[GlcNAc(b1-3)Gal(b1-4)GlcNAc(b1-3)Gal(b1-4)GlcNAc(b1-2)Man(a1-3)]Man(b1-4)GlcNAc(b1-4)[Fuc(a1-6)]GlcNAc
# In short: as §1
# [4] = target: GlcNAc(b1-3)Gal(b1-4)GlcNAc(b1-3)Gal(b1-4)GlcNAc(b1-3)Gal(b1-4)GlcNAc(b1-2)Man(a1-3)[GlcNAc(b1-3)Gal(b1-4)GlcNAc(b1-3)Gal(b1-4)GlcNAc(b1-3)Gal(b1-4)GlcNAc(b1-2)Man(a1-6)]Man(b1-4)GlcNAc(b1-4)GlcNAc
# In short: as §1
# [5] = target: GlcNAc(b1-3)Gal(b1-4)GlcNAc(b1-3)Gal(b1-4)GlcNAc(b1-3)Gal(b1-4)GlcNAc(b1-2)Man(a1-3)[GlcNAc(b1-3)Gal(b1-4)GlcNAc(b1-3)Gal(b1-4)GlcNAc(b1-3)Gal(b1-4)GlcNAc(b1-2)Man(a1-6)]Man(b1-4)GlcNAc(b1-4)[Fuc(a1-6)]GlcNAc
# In short: as §1
# [6] = target: GlcNAc(b1-3)Gal(b1-4)GlcNAc(b1-3)Gal(b1-4)GlcNAc(b1-3)Gal(b1-4)GlcNAc(b1-2)[GlcNAc(b1-3)Gal(b1-4)GlcNAc(b1-3)Gal(b1-4)GlcNAc(b1-3)Gal(b1-4)GlcNAc(b1-6)]Man(a1-6)[GlcNAc(b1-3)Gal(b1-4)GlcNAc(b1-3)Gal(b1-4)GlcNAc(b1-3)Gal(b1-4)GlcNAc(b1-2)Man(a1-3)]Man(b1-4)GlcNAc(b1-4)[Fuc(a1-6)]GlcNAc
# In short: as §1
# [7] = target: GlcNAc(b1-3)Gal(b1-4)GlcNAc(b1-3)Gal(b1-4)GlcNAc(b1-3)Gal(b1-4)GlcNAc(b1-3)Gal(b1-4)GlcNAc(b1-2)Man(a1-3)[GlcNAc(b1-3)Gal(b1-4)GlcNAc(b1-3)Gal(b1-4)GlcNAc(b1-3)Gal(b1-4)GlcNAc(b1-3)Gal(b1-4)GlcNAc(b1-2)Man(a1-6)]Man(b1-4)GlcNAc(b1-4)GlcNAc
# In short: as §1
# [8] = target: GlcNAc(b1-3)Gal(b1-4)GlcNAc(b1-3)Gal(b1-4)GlcNAc(b1-3)Gal(b1-4)GlcNAc(b1-3)Gal(b1-4)GlcNAc(b1-2)Man(a1-3)[GlcNAc(b1-3)Gal(b1-4)GlcNAc(b1-3)Gal(b1-4)GlcNAc(b1-3)Gal(b1-4)GlcNAc(b1-3)Gal(b1-4)GlcNAc(b1-2)Man(a1-6)]Man(b1-4)GlcNAc(b1-4)[Fuc(a1-6)]GlcNAc
# In short: as §1
# [9] = target: GlcNAc(b1-3)Gal(b1-4)GlcNAc(b1-3)Gal(b1-4)GlcNAc(b1-3)Gal(b1-4)GlcNAc(b1-3)Gal(b1-4)GlcNAc(b1-2)[GlcNAc(b1-3)Gal(b1-4)GlcNAc(b1-3)Gal(b1-4)GlcNAc(b1-3)Gal(b1-4)GlcNAc(b1-3)Gal(b1-4)GlcNAc(b1-6)]Man(a1-6)[GlcNAc(b1-3)Gal(b1-4)GlcNAc(b1-3)Gal(b1-4)GlcNAc(b1-3)Gal(b1-4)GlcNAc(b1-3)Gal(b1-4)GlcNAc(b1-2)Man(a1-3)]Man(b1-4)GlcNAc(b1-4)[Fuc(a1-6)]GlcNAc
# In short: as §1
# [10] = target: GlcNAc(b1-3)Gal(b1-4)GlcNAc(b1-3)Gal(b1-4)GlcNAc(b1-3)GalNAc
# In short: as §1
# [11] = target: GlcNAc(b1-3)Gal(b1-4)GlcNAc(b1-3)GalNAc
# In short: as §1
# [12] = target: GlcNAc(b1-3)Gal(b1-4)GlcNAc(b1-3)[GlcNAc(b1-3)Gal(b1-4)GlcNAc(b1-3)]GalNAc
# In short: as §1
# [13] = target: GlcNAc(b1-3)Gal(b1-4)GlcNAc(b1-6)[Gal(b1-3)]GalNAc
# In short: as §1
# [14] = target: GlcNAc(b1-3)Gal(b1-4)GlcNAc(b1-6)[GlcNAc(b1-3)Gal(b1-3)]GalNAc
# In short: as §1
# [15] = target: GlcNAc(b1-3)Gal(b1-4)GlcNAc(b1-6)[GlcNAc(b1-3)]Gal(b1-4)GlcNAc
# In short: as §1
# [16] = target: GlcNAc(b1-3)GalNAc
# In short: as §1
# [17] = target: GlcNAc(b1-3)Man
# In short: as §1
# [18] = target: GlcNAc(b1-3)[GlcNAc(b1-4)][GlcNAc(b1-6)]GlcNAc
# In short: as §1
# [19] = target: GlcNAc(b1-3)[GlcNAc(b1-6)]Gal(b1-4)GlcNAc
# In short: as §1
# [20] = target: GlcNAc(b1-3)[GlcNAc(b1-6)]GalNAc
# In short: as §1
# [21] = target: GlcNAc(b1-4)Gal(b1-4)GlcNAc
# In short: as §1
# [22] = target: GlcNAc(b1-4)GlcNAc
# In short: as §1
# [23] = target: GlcNAc(b1-4)GlcNAc(b1-4)GlcNAc
# In short: as §1
# [24] = target: GlcNAc(b1-4)GlcNAc(b1-4)GlcNAc(b1-4)GlcNAc(b1-4)GlcNAc
# In short: as §1
# [25] = target: GlcNAc(b1-4)GlcNAc(b1-4)GlcNAc(b1-4)GlcNAc(b1-4)GlcNAc(b1-4)GlcNAc
# In short: as §1
# [26] = target: GlcNAc(b1-4)[GlcNAc(b1-6)]GalNAc
# In short: as §1
# [27] = target: GlcNAc(b1-6)Gal(b1-4)GlcNAc
# In short: as §1
# [28] = target: GlcNAc(b1-6)GalNAc
# In short: as §1
# [29] = target: GlcNAc6S(b1-3)Gal(b1-4)GlcNAc
# In short: as §1
# [30] = target: Kdn(a2-3)Gal(b1-3)GalNAc
# In short: as §1
# [31] = target: Kdn(a2-3)Gal(b1-3)GlcNAc
# In short: as §1
# [32] = target: Kdn(a2-3)Gal(b1-4)Glc
# In short: as §1
# [33] = target: Kdn(a2-3)Gal(b1-4)GlcNAc
# In short: as §1
# [34] = target: Kdn(a2-3)Gal(b1-4)[Fuc(a1-3)]GlcNAc
# In short: as §1
# [35] = target: Kdn(a2-6)Gal(b1-4)GlcNAc
# In short: as §1
# [36] = target: Man(a1-2)Man(a1-2)Man(a1-3)Man
# In short: as §1
# [37] = target: Man(a1-2)Man(a1-2)Man(a1-6)[Man(a1-3)]Man
# In short: as §1
# [38] = target: Man(a1-2)Man(a1-3)Man
# In short: as §1
binder,measurement,setting,value
B1,glycan array binding signal (z-score),[1],-0.038
same,glycan array binding signal (z-score),[2],1.31
same,glycan array binding signal (z-score),[3],1.8
same,glycan array binding signal (z-score),[4],1.01
same,glycan array binding signal (z-score),[5],0.059
same,glycan array binding signal (z-score),[6],1.93
same,glycan array binding signal (z-score),[7],0.529
same,glycan array binding signal (z-score),[8],-0.008
same,glycan array binding signal (z-score),[9],2.04
same,glycan array binding signal (z-score),[10],0.002
same,glycan array binding signal (z-score),[11],-0.257
same,glycan array binding signal (z-score),[12],-0.693
same,glycan array binding signal (z-score),[13],-0.69
same,glycan array binding signal (z-score),[14],0.298
same,glycan array binding signal (z-score),[15],0.761
same,glycan array binding signal (z-score),[16],-0.124
same,glycan array binding signal (z-score),[17],0.027
same,glycan array binding signal (z-score),[18],-0.066
same,glycan array binding signal (z-score),[19],-0.578
same,glycan array binding signal (z-score),[20],-0.421
same,glycan array binding signal (z-score),[21],-0.372
same,glycan array binding signal (z-score),[22],-0.007
same,glycan array binding signal (z-score),[23],-0.8
same,glycan array binding signal (z-score),[24],0.779
same,glycan array binding signal (z-score),[25],-0.6
same,glycan array binding signal (z-score),[26],1.65
same,glycan array binding signal (z-score),[27],-0.608
same,glycan array binding signal (z-score),[28],-0.127
same,glycan array binding signal (z-score),[29],0.436
same,glycan array binding signal (z-score),[30],0.355
same,glycan array binding signal (z-score),[31],-0.62
same,glycan array binding signal (z-score),[32],0.008
same,glycan array binding signal (z-score),[33],-0.603
same,glycan array binding signal (z-score),[34],0.664
same,glycan array binding signal (z-score),[35],-0.779
same,glycan array binding signal (z-score),[36],-0.37
same,glycan array binding signal (z-score),[37],1.4
same,glycan array binding signal (z-score),[38],-0.834

# 2 entries drawn at random from those above, as already listed:
binder,measurement,setting,value
B1,glycan array binding signal (z-score),[17],0.027
same,glycan array binding signal (z-score),[33],-0.603
